In paper doi:10.1101/2022.08.01.502312:
Results are given in words; binding and its absence hold for the method and conditions named.

T1: Human FSHR (residues 18-695), wild type (human), P23945
T1 chain: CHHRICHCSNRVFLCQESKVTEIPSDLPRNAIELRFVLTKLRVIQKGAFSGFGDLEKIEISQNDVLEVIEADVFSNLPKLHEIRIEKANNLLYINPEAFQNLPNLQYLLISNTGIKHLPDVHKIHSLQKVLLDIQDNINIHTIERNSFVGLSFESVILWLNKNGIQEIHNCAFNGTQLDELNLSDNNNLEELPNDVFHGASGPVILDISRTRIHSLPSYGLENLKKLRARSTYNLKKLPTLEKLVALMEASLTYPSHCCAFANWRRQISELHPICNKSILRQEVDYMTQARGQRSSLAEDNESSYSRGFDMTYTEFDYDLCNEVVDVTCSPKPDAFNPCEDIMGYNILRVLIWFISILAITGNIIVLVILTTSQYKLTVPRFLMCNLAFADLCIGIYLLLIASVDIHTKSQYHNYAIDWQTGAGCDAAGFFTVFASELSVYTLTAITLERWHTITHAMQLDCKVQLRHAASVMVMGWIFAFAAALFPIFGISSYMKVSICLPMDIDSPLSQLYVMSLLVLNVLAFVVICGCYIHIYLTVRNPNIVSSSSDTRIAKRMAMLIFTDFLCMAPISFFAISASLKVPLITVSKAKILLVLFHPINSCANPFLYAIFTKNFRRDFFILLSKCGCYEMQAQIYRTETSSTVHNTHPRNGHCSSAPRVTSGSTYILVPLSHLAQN


Columns and labels:
[1] = biological target: Human FSHR (residues 18-695) with the constitutively active mutation S273I (human) (UniProt P23945); experiment: cryo-EM structure
[2] = biological target: T1, Human FSHR (residues 18-695), wild type …; experiment: cryo-EM structure; conditions: remark: other sources report otherwise

Molecule	binding [1]	binding [2]
Human FSHR (residues 18-695) with the constitutively active mutation S273I (from UniProt P23945 18-695) (receptor)	no binding	–
Human FSHR (residues 18-695), wild type, P23945 18-695 (receptor) CHHRICHCSNRVFLCQESKVTEIPSDLPRNAIELRFVLTKLRVIQKGAFSGFGDLEKIEISQNDVLEVIEADVFSNLPKLHEIRIEKANNLLYINPEAFQNLPNLQYLLISNTGIKHLPDVHKIHSLQKVLLDIQDNINIHTIERNSFVGLSFESVILWLNKNGIQEIHNCAFNGTQLDELNLSDNNNLEELPNDVFHGASGPVILDISRTRIHSLPSYGLENLKKLRARSTYNLKKLPTLEKLVALMEASLTYPSHCCAFANWRRQISELHPICNKSILRQEVDYMTQARGQRSSLAEDNESSYSRGFDMTYTEFDYDLCNEVVDVTCSPKPDAFNPCEDIMGYNILRVLIWFISILAITGNIIVLVILTTSQYKLTVPRFLMCNLAFADLCIGIYLLLIASVDIHTKSQYHNYAIDWQTGAGCDAAGFFTVFASELSVYTLTAITLERWHTITHAMQLDCKVQLRHAASVMVMGWIFAFAAALFPIFGISSYMKVSICLPMDIDSPLSQLYVMSLLVLNVLAFVVICGCYIHIYLTVRNPNIVSSSSDTRIAKRMAMLIFTDFLCMAPISFFAISASLKVPLITVSKAKILLVLFHPINSCANPFLYAIFTKNFRRDFFILLSKCGCYEMQAQIYRTETSSTVHNTHPRNGHCSSAPRVTSGSTYILVPLSHLAQN	–	no binding
